# The supplement of paper PMC12823440, “Inhibitors supercharge kinase turnover through native proteolytic circuits” (Nature, 2025)
# Protein sequences, listed by entry. Tags and fused reporters are not part of them. Lines headed by an entry give the natural chain unless they say otherwise; changes in a name come on top.
# UniProt Q9Y616: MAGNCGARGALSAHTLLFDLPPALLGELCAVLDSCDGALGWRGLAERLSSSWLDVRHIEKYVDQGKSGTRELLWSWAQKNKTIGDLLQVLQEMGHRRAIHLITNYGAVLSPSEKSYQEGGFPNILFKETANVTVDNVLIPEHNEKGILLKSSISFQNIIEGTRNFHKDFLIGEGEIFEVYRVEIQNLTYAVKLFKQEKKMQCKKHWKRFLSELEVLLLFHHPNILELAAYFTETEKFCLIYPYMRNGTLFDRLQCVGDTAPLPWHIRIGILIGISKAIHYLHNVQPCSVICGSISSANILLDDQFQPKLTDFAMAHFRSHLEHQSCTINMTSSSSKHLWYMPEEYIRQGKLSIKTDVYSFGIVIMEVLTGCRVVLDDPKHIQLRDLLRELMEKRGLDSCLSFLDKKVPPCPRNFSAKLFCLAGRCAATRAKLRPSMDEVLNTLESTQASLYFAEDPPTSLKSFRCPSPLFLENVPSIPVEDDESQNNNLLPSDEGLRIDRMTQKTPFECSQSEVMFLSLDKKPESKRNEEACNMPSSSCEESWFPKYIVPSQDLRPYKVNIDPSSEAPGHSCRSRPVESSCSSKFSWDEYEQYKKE
# UniProt P23458: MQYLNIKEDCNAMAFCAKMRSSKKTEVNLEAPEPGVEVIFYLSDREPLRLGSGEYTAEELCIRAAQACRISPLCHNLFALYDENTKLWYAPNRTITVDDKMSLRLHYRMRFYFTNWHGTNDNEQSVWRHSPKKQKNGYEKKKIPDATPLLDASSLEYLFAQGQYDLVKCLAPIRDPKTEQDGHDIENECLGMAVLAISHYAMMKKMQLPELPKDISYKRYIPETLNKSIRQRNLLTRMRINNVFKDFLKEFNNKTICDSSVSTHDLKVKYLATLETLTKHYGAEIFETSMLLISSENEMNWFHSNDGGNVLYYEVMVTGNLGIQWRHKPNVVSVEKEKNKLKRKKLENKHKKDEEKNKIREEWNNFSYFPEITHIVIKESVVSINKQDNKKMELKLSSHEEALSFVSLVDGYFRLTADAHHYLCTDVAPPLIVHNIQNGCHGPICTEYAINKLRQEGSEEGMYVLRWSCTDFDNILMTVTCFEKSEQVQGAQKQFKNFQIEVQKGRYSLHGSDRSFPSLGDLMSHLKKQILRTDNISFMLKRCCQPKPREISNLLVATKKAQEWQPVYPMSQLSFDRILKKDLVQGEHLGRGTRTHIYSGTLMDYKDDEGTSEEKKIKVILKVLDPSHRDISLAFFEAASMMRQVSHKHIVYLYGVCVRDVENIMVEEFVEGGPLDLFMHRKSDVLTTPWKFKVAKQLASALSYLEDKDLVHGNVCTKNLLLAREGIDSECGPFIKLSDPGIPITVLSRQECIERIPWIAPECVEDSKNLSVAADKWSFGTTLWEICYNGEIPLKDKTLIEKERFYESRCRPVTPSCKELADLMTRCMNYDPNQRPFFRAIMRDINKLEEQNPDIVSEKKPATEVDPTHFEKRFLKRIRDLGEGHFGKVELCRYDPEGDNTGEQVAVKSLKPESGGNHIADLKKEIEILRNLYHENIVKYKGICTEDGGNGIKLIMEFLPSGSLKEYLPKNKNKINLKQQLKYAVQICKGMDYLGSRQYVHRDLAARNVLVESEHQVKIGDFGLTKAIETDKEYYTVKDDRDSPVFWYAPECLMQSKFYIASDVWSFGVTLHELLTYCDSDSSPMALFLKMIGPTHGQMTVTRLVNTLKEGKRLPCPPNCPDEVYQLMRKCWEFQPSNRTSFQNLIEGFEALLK
# UniProt P06239: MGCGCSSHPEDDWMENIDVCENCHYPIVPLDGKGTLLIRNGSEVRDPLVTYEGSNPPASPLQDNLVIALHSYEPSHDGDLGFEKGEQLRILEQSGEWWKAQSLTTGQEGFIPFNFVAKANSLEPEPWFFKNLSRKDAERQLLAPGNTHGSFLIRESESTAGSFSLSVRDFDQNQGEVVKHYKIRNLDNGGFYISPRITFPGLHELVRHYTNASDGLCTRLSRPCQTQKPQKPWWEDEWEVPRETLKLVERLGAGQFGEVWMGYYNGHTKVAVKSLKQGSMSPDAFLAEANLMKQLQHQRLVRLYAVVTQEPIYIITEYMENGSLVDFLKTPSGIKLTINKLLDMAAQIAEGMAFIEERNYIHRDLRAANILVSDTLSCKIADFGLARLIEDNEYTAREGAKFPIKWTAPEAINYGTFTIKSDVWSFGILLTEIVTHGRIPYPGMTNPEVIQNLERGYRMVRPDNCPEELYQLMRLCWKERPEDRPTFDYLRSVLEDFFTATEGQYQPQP
# UniProt P53667: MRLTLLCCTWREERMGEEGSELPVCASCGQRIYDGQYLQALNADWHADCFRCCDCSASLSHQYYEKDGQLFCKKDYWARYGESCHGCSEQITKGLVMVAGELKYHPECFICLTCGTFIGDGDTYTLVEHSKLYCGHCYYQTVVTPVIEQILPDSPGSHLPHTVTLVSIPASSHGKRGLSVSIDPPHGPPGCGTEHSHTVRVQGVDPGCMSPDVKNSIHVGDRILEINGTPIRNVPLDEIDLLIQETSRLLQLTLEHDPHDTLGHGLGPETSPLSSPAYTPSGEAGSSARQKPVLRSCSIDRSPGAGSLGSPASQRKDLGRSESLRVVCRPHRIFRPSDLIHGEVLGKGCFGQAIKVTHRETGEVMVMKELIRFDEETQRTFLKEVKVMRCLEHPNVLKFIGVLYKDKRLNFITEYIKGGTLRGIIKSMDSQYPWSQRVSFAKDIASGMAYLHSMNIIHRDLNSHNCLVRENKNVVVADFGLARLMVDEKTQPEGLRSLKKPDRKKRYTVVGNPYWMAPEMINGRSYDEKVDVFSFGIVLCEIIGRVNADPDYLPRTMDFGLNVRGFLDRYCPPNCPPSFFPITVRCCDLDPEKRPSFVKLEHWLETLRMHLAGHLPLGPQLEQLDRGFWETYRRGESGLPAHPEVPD
# UniProt P53671: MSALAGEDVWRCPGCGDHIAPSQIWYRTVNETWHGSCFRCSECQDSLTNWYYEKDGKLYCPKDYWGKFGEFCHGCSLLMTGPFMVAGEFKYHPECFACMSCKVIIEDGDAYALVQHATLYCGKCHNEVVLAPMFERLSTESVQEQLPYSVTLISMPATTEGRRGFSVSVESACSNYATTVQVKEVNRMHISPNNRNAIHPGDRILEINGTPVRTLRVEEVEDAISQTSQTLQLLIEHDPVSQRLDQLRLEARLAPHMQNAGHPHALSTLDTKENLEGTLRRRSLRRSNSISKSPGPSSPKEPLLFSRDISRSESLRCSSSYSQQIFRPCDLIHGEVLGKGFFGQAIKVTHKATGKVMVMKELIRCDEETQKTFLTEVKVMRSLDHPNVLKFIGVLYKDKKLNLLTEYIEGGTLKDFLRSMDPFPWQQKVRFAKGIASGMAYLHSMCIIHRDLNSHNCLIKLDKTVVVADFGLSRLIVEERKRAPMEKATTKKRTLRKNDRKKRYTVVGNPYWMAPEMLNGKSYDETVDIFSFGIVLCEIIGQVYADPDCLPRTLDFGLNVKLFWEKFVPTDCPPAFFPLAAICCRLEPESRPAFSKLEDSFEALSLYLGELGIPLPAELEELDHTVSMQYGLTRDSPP
# UniProt Q8IWU2: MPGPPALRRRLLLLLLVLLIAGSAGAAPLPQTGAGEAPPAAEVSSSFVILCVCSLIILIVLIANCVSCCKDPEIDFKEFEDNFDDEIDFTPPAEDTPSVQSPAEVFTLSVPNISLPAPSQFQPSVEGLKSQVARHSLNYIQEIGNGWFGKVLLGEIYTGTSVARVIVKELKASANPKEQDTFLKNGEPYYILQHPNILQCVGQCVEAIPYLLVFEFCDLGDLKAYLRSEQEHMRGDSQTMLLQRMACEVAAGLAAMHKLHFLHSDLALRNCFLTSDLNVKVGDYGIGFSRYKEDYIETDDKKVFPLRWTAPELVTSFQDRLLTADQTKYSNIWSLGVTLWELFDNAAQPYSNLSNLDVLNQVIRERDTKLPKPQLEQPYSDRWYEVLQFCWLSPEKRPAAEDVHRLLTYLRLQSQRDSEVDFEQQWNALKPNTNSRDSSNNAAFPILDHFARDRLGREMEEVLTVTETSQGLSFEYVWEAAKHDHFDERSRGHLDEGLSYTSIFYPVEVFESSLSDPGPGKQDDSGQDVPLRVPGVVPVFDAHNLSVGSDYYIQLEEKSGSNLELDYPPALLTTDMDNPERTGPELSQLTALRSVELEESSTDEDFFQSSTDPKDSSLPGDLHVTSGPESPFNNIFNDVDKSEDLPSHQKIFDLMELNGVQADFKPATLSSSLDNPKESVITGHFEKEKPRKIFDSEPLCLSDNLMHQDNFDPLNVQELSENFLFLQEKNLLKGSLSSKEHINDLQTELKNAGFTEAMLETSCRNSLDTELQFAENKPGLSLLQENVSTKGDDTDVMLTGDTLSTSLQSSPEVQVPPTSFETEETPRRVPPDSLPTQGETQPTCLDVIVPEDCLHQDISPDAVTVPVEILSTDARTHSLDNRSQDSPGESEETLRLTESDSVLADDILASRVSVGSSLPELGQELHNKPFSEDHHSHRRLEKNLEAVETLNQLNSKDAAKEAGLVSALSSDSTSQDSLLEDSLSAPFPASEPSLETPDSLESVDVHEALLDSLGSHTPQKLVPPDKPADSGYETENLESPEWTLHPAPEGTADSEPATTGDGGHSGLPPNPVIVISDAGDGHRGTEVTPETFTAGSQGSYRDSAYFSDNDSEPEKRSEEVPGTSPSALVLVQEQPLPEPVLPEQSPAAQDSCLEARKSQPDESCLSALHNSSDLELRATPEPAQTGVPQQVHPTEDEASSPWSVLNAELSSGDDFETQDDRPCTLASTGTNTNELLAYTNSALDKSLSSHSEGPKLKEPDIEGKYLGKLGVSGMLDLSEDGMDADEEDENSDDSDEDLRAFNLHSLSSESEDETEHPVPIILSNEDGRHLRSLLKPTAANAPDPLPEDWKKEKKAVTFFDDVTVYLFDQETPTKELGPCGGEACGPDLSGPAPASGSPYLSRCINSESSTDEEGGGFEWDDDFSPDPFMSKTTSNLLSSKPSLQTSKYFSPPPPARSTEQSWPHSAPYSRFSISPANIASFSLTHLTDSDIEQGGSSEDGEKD
# UniProt P07948: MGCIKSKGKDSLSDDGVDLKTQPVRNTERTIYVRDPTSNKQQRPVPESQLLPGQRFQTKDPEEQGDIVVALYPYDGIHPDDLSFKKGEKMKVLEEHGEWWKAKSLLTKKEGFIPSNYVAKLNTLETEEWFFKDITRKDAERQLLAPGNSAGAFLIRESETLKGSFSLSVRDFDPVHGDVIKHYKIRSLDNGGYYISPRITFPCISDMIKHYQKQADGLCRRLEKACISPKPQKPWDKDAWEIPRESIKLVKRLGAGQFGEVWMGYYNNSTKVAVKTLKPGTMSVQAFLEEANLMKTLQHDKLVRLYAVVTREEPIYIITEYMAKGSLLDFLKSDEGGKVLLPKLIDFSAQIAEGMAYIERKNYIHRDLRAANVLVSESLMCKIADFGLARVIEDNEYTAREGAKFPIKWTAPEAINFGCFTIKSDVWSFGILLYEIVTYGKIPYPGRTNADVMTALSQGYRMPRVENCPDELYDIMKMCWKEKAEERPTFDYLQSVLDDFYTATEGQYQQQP
# UniProt Q12851: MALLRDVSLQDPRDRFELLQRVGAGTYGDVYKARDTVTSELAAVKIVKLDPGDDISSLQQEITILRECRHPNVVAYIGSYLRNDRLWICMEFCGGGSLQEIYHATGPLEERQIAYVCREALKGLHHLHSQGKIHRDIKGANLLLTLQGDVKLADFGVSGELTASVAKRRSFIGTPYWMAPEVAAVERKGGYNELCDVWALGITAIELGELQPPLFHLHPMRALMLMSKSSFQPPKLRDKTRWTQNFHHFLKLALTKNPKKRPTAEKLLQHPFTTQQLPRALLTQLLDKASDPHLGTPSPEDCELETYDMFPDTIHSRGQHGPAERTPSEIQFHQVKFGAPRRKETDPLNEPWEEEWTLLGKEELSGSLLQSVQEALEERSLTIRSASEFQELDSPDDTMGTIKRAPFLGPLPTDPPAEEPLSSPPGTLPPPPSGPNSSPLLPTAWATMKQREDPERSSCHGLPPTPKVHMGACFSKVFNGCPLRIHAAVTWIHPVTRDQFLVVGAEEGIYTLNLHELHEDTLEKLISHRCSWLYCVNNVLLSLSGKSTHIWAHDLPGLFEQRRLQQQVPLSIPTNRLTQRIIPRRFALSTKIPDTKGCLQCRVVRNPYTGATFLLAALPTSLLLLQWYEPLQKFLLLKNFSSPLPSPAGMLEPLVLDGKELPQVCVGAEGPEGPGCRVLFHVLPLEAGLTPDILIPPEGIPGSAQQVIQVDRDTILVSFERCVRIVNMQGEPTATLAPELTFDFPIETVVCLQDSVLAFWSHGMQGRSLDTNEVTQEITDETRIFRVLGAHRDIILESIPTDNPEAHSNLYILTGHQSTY
# The other results are listed elsewhere or left out. The calls rarely recur for the same compound in another form.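 Kinases were expressed as nanoluciferase fusions in K562 cells and luminescence was read every 4 h between 2 and 18 h as percent of control, DMSO set to 100% and a positive control to 0%. A time point counts as decreased when the signal drops significantly (2 sigma). The hit call is the authors' own, does not follow from the count of time points alone, and its rule is not shown.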
# How the values were obtained:
# Test in all cases: kinase-Nluc reporter destabilization hit call (1 = scored as downregulated) (binary); higher = compound decreases kinase abundance
# Details in all cases: K562; 2-18 h
# IRAK3 = IRAK3 (UniProt Q9Y616)
# JAK1 = JAK1 (UniProt P23458)
# LCK = LCK (UniProt P06239)
# LIMK1 = LIMK1 (UniProt P53667)
# LIMK2 = LIMK2 (UniProt P53671)
# LMTK2 = LMTK2 (UniProt Q8IWU2)
# LYN = LYN (UniProt P07948)
# MAP2K1 = MAP2K1 (UniProt Q02750)
# MAP2K2 = MAP2K2 (UniProt P36507)
# MAP4K2 = MAP4K2 (UniProt Q12851)
SMILES,kinase-Nluc reporter destabilization hit call (IRAK3),kinase-Nluc reporter destabilization hit call (JAK1),kinase-Nluc reporter destabilization hit call (LCK),kinase-Nluc reporter destabilization hit call (LIMK1),kinase-Nluc reporter destabilization hit call (LIMK2),kinase-Nluc reporter destabilization hit call (LMTK2),kinase-Nluc reporter destabilization hit call (LYN),kinase-Nluc reporter destabilization hit call (MAP2K1),kinase-Nluc reporter destabilization hit call (MAP2K2),kinase-Nluc reporter destabilization hit call (MAP4K2)
CN1CCN(C(=O)c2ccc(-c3ccc4c(C=O)c(O)ccc4c3)s2)CC1 (2.5 µM),inactive: 0,inactive: 0,inactive: 0,inactive: 0,inactive: 0,inactive: 0,inactive: 0,inactive: 0,inactive: 0,inactive: 0
CC[C@H](CO)Nc1nc(NCc2ccccc2)c2ncn(C(C)C)c2n1 [Seliciclib] (10 µM),inactive: 0,inactive: 0,inactive: 0,inactive: 0,inactive: 0,inactive: 0,inactive: 0,inactive: 0,inactive: 0,inactive: 0
CCN(CC)CCCCNc1ncc2cc(-c3cc(OC)cc(OC)c3)c(NC(=O)NC(C)(C)C)nc2n1 (10 µM),inactive: 0,inactive: 0,inactive: 0,inactive: 0,inactive: 0,inactive: 0,inactive: 0,inactive: 0,inactive: 0,inactive: 0
Oc1ccc(-c2nc(-c3ccc(F)cc3)c(-c3ccncc3)[nH]2)cc1 (2.5 µM),inactive: 0,inactive: 0,inactive: 0,inactive: 0,inactive: 0,inactive: 0,inactive: 0,inactive: 0,inactive: 0,inactive: 0
CNC(=O)c1cc(Oc2ccc(NC(=O)Nc3cc(C(C)(C)C)nn3-c3ccc4ncccc4c3)c(F)c2)ccn1 [Rebastinib] (2.5 µM),inactive: 0,inactive: 0,inactive: 0,active: 1,inactive: 0,inactive: 0,inactive: 0,inactive: 0,inactive: 0,inactive: 0
COc1cc(C(=O)NC2CCN(C)CC2)ccc1Nc1ncc2c(n1)N(C1CCCC1)CC(F)(F)C(=O)N2C (10 µM),inactive: 0,inactive: 0,inactive: 0,inactive: 0,inactive: 0,inactive: 0,inactive: 0,inactive: 0,inactive: 0,inactive: 0
COc1ccc(COc2ccc(Cc3cnc(N)nc3N)cc2OC)cc1 (10 µM),inactive: 0,inactive: 0,inactive: 0,inactive: 0,inactive: 0,inactive: 0,inactive: 0,inactive: 0,inactive: 0,inactive: 0
Brc1c(Br)c(Br)c2n[nH]nc2c1Br (10 µM),inactive: 0,inactive: 0,inactive: 0,inactive: 0,inactive: 0,inactive: 0,inactive: 0,inactive: 0,inactive: 0,inactive: 0
COc1cc(OC)cc(N(CCNC(C)C)c2ccc3ncc(-c4cnn(C)c4)nc3c2)c1 [Erdafitinib] (2.5 µM),inactive: 0,inactive: 0,inactive: 0,inactive: 0,inactive: 0,inactive: 0,inactive: 0,inactive: 0,inactive: 0,inactive: 0
COc1cc2ncnc(Nc3cccc(O)c3)c2cc1OC (10 µM),inactive: 0,inactive: 0,inactive: 0,inactive: 0,inactive: 0,inactive: 0,inactive: 0,inactive: 0,inactive: 0,inactive: 0
CCN1CCN(c2ccc(Nc3cc(N(C)C(=O)Nc4c(Cl)c(OC)cc(OC)c4Cl)ncn3)cc2)CC1 [Infigratinib] (10 µM),inactive: 0,inactive: 0,inactive: 0,inactive: 0,inactive: 0,inactive: 0,inactive: 0,inactive: 0,inactive: 0,inactive: 0
Cc1ncc(-c2ccnc(Nc3ccc(S(C)(=O)=O)cc3)n2)n1C(C)C (2.5 µM),inactive: 0,inactive: 0,inactive: 0,inactive: 0,inactive: 0,inactive: 0,inactive: 0,inactive: 0,inactive: 0,inactive: 0
Nc1ncnc2c1c(-c1cccc(OCc3ccccc3)c1)cn2C1CC(CN2CCCC2)C1 (stereo not given) (2.5 µM),inactive: 0,inactive: 0,inactive: 0,inactive: 0,inactive: 0,inactive: 0,inactive: 0,inactive: 0,inactive: 0,inactive: 0
Cc1nc(N)sc1-c1ccnc(Nc2ccc(N3CCOCC3)cc2)n1 (10 µM),inactive: 0,inactive: 0,inactive: 0,inactive: 0,inactive: 0,inactive: 0,inactive: 0,inactive: 0,inactive: 0,inactive: 0
CCC(=O)N1CCN(c2ccc(-n3c(=O)ccc4cnc5ccc(-c6cnc7ccccc7c6)cc5c43)cc2C(F)(F)F)CC1 [Torin 1] (2 µM),inactive: 0,inactive: 0,inactive: 0,inactive: 0,inactive: 0,inactive: 0,inactive: 0,inactive: 0,inactive: 0,inactive: 0
CNC(=O)c1cccc(-c2ccc3c(N4CCOC[C@@H]4C)nc(N4CCOC[C@@H]4C)nc3n2)c1 [Vistusertib] (2.5 µM),inactive: 0,inactive: 0,inactive: 0,inactive: 0,inactive: 0,inactive: 0,inactive: 0,inactive: 0,inactive: 0,inactive: 0
CN1CCN(C2CCN(C(=O)Nc3cc(Oc4ccc(NC(=O)C5(C(=O)Nc6ccc(F)cc6)CC5)c(F)c4)ccn3)CC2)CC1 [Golvatinib] (2.5 µM),inactive: 0,inactive: 0,inactive: 0,inactive: 0,inactive: 0,inactive: 0,inactive: 0,inactive: 0,inactive: 0,inactive: 0
O=C1NC(=NCc2cccs2)S/C1=C\c1ccc2ncccc2c1 (10 µM),inactive: 0,inactive: 0,inactive: 0,inactive: 0,inactive: 0,inactive: 0,inactive: 0,inactive: 0,inactive: 0,inactive: 0
COc1ccc(NC(=O)N2CCN(c3nc(N)nc4c3cnn4C)[C@@H](C)C2)c(C)c1 (10 µM),inactive: 0,inactive: 0,inactive: 0,inactive: 0,inactive: 0,inactive: 0,inactive: 0,inactive: 0,inactive: 0,inactive: 0
COc1cc(C)c(Sc2cnc(NC(=O)c3ccc(CNC(C)C(C)(C)C)cc3)s2)cc1C(=O)N1CCN(C(C)=O)CC1 (stereo not given) (2.5 µM),inactive: 0,inactive: 0,inactive: 0,inactive: 0,inactive: 0,inactive: 0,inactive: 0,inactive: 0,inactive: 0,inactive: 0
COc1cc2nc(C)nc(N[C@H](C)c3cc(N)cc(C(F)(F)F)c3)c2cc1O[C@H]1CCOC1 (10 µM),inactive: 0,inactive: 0,inactive: 0,inactive: 0,inactive: 0,inactive: 0,inactive: 0,inactive: 0,inactive: 0,inactive: 0
C=CC(=O)Nc1cccc(Nc2nc(Nc3ccc(OCCOC)cc3)ncc2F)c1 [Spebrutinib] (10 µM),inactive: 0,inactive: 0,inactive: 0,inactive: 0,inactive: 0,inactive: 0,inactive: 0,inactive: 0,inactive: 0,inactive: 0
COc1cc(OC)c(F)c(COc2cnc(Nc3cnn(CCO)c3)nc2)c1F (2.5 µM),inactive: 0,inactive: 0,inactive: 0,inactive: 0,inactive: 0,inactive: 0,inactive: 0,inactive: 0,inactive: 0,inactive: 0
O=C1c2ccccc2-c2n[nH]c3cccc1c23 (10 µM),inactive: 0,inactive: 0,inactive: 0,inactive: 0,inactive: 0,inactive: 0,inactive: 0,inactive: 0,inactive: 0,inactive: 0
COc1cc2ncn(-c3cc(OCc4ccccc4C(F)(F)F)c(C(N)=O)s3)c2cc1OC (10 µM),inactive: 0,inactive: 0,inactive: 0,inactive: 0,inactive: 0,inactive: 0,inactive: 0,inactive: 0,inactive: 0,inactive: 0
Cc1c[nH]c2ccccc12 [Skatole] (10 µM),inactive: 0,inactive: 0,inactive: 0,inactive: 0,inactive: 0,inactive: 0,inactive: 0,inactive: 0,inactive: 0,inactive: 0
CCc1nc(-c2cccc(C)c2)c(-c2ccnc(NC(=O)c3ccccc3)c2)s1 (10 µM),inactive: 0,inactive: 0,inactive: 0,inactive: 0,inactive: 0,inactive: 0,inactive: 0,inactive: 0,inactive: 0,inactive: 0
CN1CCN(c2ccc(Nc3cc(-c4cccc(-n5ccc6cc(C7CC7)cc(F)c6c5=O)c4CO)cn(C)c3=O)nc2)CC1 (2.5 µM),inactive: 0,inactive: 0,inactive: 0,inactive: 0,inactive: 0,inactive: 0,inactive: 0,inactive: 0,inactive: 0,inactive: 0
N#C/C(=C\c1ccc(O)c(O)c1)C(=O)NCc1ccccc1 (10 µM),inactive: 0,inactive: 0,inactive: 0,inactive: 0,inactive: 0,inactive: 0,inactive: 0,inactive: 0,inactive: 0,inactive: 0

# In the list so far, these contain two or more sulfur atoms:
SMILES,kinase-Nluc reporter destabilization hit call (IRAK3),kinase-Nluc reporter destabilization hit call (JAK1),kinase-Nluc reporter destabilization hit call (LCK),kinase-Nluc reporter destabilization hit call (LIMK1),kinase-Nluc reporter destabilization hit call (LIMK2),kinase-Nluc reporter destabilization hit call (LMTK2),kinase-Nluc reporter destabilization hit call (LYN),kinase-Nluc reporter destabilization hit call (MAP2K1),kinase-Nluc reporter destabilization hit call (MAP2K2),kinase-Nluc reporter destabilization hit call (MAP4K2)
O=C1NC(=NCc2cccs2)S/C1=C\c1ccc2ncccc2c1 (10 µM),inactive: 0,inactive: 0,inactive: 0,inactive: 0,inactive: 0,inactive: 0,inactive: 0,inactive: 0,inactive: 0,inactive: 0
COc1cc(C)c(Sc2cnc(NC(=O)c3ccc(CNC(C)C(C)(C)C)cc3)s2)cc1C(=O)N1CCN(C(C)=O)CC1 (stereo not given) (2.5 µM),inactive: 0,inactive: 0,inactive: 0,inactive: 0,inactive: 0,inactive: 0,inactive: 0,inactive: 0,inactive: 0,inactive: 0
